Test results: US9963433B2, “Anticancer drugs including the chemical structures of an androgen receptor ligand and a histone deacetylase inhibitor” (Wayne State University, priority 2016, dated 2018)

Legend:
[1] = system: KLK3 mRNA (AR target gene) in C4-2 cells; assay: Inhibition of R1881 activation of KLK3 mRNA in C4-2 cells; assay type: cell-based; settings: hormone depleted 96 h, R1881 1 nM, compound 1-10 μM, 48 h, FIG. 3A
Protocol: (§1) Cell Culture and Reagents. LNCaP and 22Rv1 cell lines were from American Type Culture Collection (Manassas, Va.). C4-2 cells were kindly provided by Dr. Edwin Sanchez (University of Toledo). […] R1881 was kindly provided by Dr. Stephan Patrick (Karmanos Cancer Institute). All experiments were conducted using phenol-red free growth media.
(§2) RNA isolation, Reverse Transcription, and Real Time PCR. Total RNA was isolated from cells using the RNeasy Mini Kit (Qiagen). Reverse transcription PCR was then performed using 500 ng of total RNA with random primers and using the high-capacity complementary DNA Archive kit (Applied Biosystems). The complementary DNA from this reaction was measured using quantitative real time PCR using the StepONE Plus Real Time PCR system (Life Technologies Corporation, Carlsbad, Calif.). All reactions were performed in triplicate and normalized to glyceraldehyde-3-phosphate-dehydrogenase values in the same samples.

[2] = system: TMPRSS2 mRNA (AR target gene) in C4-2 cells; assay: Inhibition of R1881 activation of TMPRSS2 mRNA in C4-2 cells; assay type: cell-based; settings: hormone depleted 96 h, R1881 1 nM, compound 1-10 μM, 48 h, FIG. 3B
Protocol: as §1, §2

SMILES: O=C(CCCCCCC(=O)Nc1ccccc1)NO [SAHA, suberanilohydroxamic acid, reference compound]
- inhibition of activation of KLK3 by R1881 [1]: partially inhibited
- inhibition of activation of TMPRSS2 by R1881 [2]: partially inhibited
